# In PubChem BioAssay AID624297 (National Center for Advancing Translational Sciences (NCATS), 2012):
# About 6,200 (1.8%) of roughly 340,000 compounds were called active. This list was built around the results that the source calls inconclusive (neither active nor inactive); the mix of calls is not that of the screen. Calls follow the shape of the dose curve; as a rule, active = well fitted activation curve with a large enough effect; inconclusive = small, poorly fitted or top-dose-only effect; inactive = no such curve, though single readings can be large or run the other way. Where the call is inconclusive, the potency comes from a doubtful curve fit.
# Test: A quantitative high throughput screen for small molecules that induce DNA re-replication in SW480 colon adenocarcinoma cells. Also: nearly all actives have a fitted effect of over 55% in size. As to re-replication activation: % of control where 0% means no effect.
# Settings: Hoechst DNA content imaging, 48 h; re-replication activation: at 46.1 µM (top of the series) unless noted
# How it was run: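 Image-based DNA-content assay: after two days of treatment, nuclei were labelled with the DNA dye Hoechst and imaged, and hits were compounds raising the count of nuclei showing high fluorescence intensity.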
# Potency is read from the fitted curve at half-maximal effect.
SMILES,Potency,re-replication activation
O=C(NC(=S)Nc1cccc(C(F)(F)F)c1)c1csnn1,active: 6.51 µM,
Cc1ccccc1Cn1nc(C)c(NC(=O)c2cc3nc(-c4ccco4)cc(C(F)(F)F)n3n2)c1C,"inconclusive: 16.4 µM [activator, single point]",
O=S(=O)(c1ccc2oc3ccccc3c2c1)N1CCOCC1,,inactive: -8.17%
O=C(C#Cc1ccccc1)Nc1ccccc1F,"inconclusive: 18.4 µM [activator, single point]",
O=C(NCc1cccnc1)C1CC(c2cccc(Br)c2)=NO1 (stereo not given),"inconclusive: 29.1 µM [activator, single point]",
CC(C)(C)C1=CC(=Nc2ccccc2N)C=C(C(C)(C)C)C1=O,"inconclusive: 1.46 µM [activator, partial curve]",
Cc1ccc(O)c(NC(=O)CSc2ccc(Cl)cc2)c1,"inconclusive: 18.4 µM [activator, single point]",
Cc1ccc(C)c2c1[nH]c1ccccc12,,inactive: 9.22%
COc1cc(OC)c(C=CC(=O)c2ccccc2O)c(OC)c1,"inconclusive: 16.4 µM [activator, single point]",
O=C(CCCSc1nnc(SCCCC(=O)c2ccc(F)cc2)s1)c1ccc(F)cc1,"inconclusive: 6.51 µM [activator, partial curve, poor fit]",
C/C(=N\NC(=O)c1n[nH]c2c1CCC2)c1cccs1,"inconclusive: 29.1 µM [activator, single point]",
CCN1C(=O)S/C(=C/c2cn(C)c3ccccc23)C1=O,"inconclusive: 29.1 µM [activator, single point]",
O=C(Nc1ccccc1)C(=O)Nc1ccccn1,,inactive: -3.31%
C=CCOC(=O)C1=C(C)NC(SCC(=O)Nc2ccc(C)c(Cl)c2)=C(C#N)C1c1ccco1 (stereo not given),active: 11.2 µM,
O=C(O)COc1ccccc1/C=N/n1c(C2CCCCC2)n[nH]c1=S,,inactive: -15.3%
CCOc1ccc(OCc2ccc(C(=O)NN)o2)cc1,,inactive: 17.6%
O=C(N/N=C/c1ccc([N+](=O)[O-])o1)c1cc2ccccc2o1,"inconclusive: 23.1 µM [activator, single point]",
CC(=O)Nc1cc2c(cc1Cl)-c1ccccc1C2O (stereo not given),,inactive: 1.84%
CCNC(=O)C1CCCN1S(=O)(=O)c1ccc(C)cc1 (stereo not given),,inactive: 0.279%
O=[N+]([O-])c1ccc(N/N=C/C=C/c2ccco2)cc1,"inconclusive: 14.6 µM [activator, partial curve, poor fit]",
CCNc1c2c(nc3ccccc13)CC(C)(C)CC2=O,"inconclusive: 2.59 µM [activator, full curve, poor fit]",
O=C(Nc1ccccn1)c1cc2ccccc2cc1O,"inconclusive: 18.4 µM [activator, single point]",
COc1cccc(/C=C/C(=O)c2ccc(C)c([N+](=O)[O-])c2)c1,"inconclusive: 29.1 µM [activator, single point]",
COc1ccc(-c2cc(C#N)nc(N3CCNCC3)n2)cc1,"inconclusive: 18.4 µM [activator, single point]",

SMILES,Potency,re-replication activation
N#CC1=C(N)C2=CCCC[C@H]2[C@H](c2ccc(Br)cc2)C1(C#N)C#N,"inconclusive: 20.6 µM [activator, single point]",
CCCCN1CC(COCc2ccccc2)Oc2cccc(Oc3cc(C)c(C)c(C)c3)c2S1(=O)=O (stereo not given),"inconclusive: 2.91 µM [activator, single point]",
Fc1cccc(-c2nnn3c2nc(Cl)c2ccccc23)c1,active: 5.8 µM,
CCn1c(/C=C/c2cc[n+](C)cc2)nc2ccccc21,"inconclusive: 1.16 µM [activator, full curve, poor fit]",
CCCCOC(=O)C1=C(C)Nc2ncnn2C1c1ccc(OCC)c(OC)c1 (stereo not given),,inactive: 0.29%
Nc1c(Cl)cc(Cl)cc1C(=O)OCC(=O)N1CCOCC1,,inactive: -10.2%
O=C1[C@@H]2Cc3c([nH]c4ccccc34)C(c3ccccc3)N2C(=O)CN1C1CCN(Cc2ccccc2)CC1 (stereo not given in full),"inconclusive: 29.1 µM [activator, single point]",
C[C@@H]1COC(=O)[C@@H](Cc2ccc(F)cc2)C/C=C\C[C@@H](CC(=O)N[C@H](CO)Cc2ccccc2)C(=O)N1,,inactive: -0.626%
O=c1ccc(-c2ccccc2)nn1Cc1ccccc1F,,inactive: 0.473%
COCCCNC(=O)c1c(N)n(-c2ccccc2)c2nc3ccccc3nc12,active: 20.6 µM,
Cn1c(-c2sc3cc(C(F)(F)F)cnc3c2-c2cccnc2)n[nH]c1=S,,inactive: -3.9%
Cc1cccc2cc(C#N)c(NCCCn3ccnc3)nc12,"inconclusive: 18.4 µM [activator, single point]",
C=CCc1c(C)nc(-c2ccccc2)nc1N/N=C/c1ccccc1,,inactive: -66.4%
CCc1ccc2[nH]c(=O)c(CN(CCN3CCCC3)C(=O)NC3CCCCC3)cc2c1,,inactive: 2.51%
Nc1ccc(-c2nc3ccc(N)cc3[nH]2)cc1,,inactive: 4.85%
COc1ccc(CCN2C(=S)N(C)C(=O)C2CC(=O)Nc2ccc(OC)cc2)cc1 (stereo not given),"inconclusive: 13 µM [activator, single point]",
N#Cc1c(-c2ccc(Cl)cc2)c2c([nH]c1=O)-c1ccccc1OC2,active: 5.8 µM,
O=C(CCCCn1c(=O)[nH]c2ccccc2c1=O)NCCC1=CCCCC1,,inactive: -0.84%
COc1ccccc1CN1C(=O)CN(C2CCCCCC2)C(=O)C1c1ccc(F)cc1 (stereo not given),"inconclusive: 22.4 µM [activator, single point]",
CCCN(CCC)C(=S)NC(=O)c1ccc(-c2ccccc2)cc1,"inconclusive: 29.1 µM [activator, single point]",
O=C(CSc1ccccc1)N1CCCC(Nc2ccccc2)C1 (stereo not given),"inconclusive: 29.1 µM [activator, single point]",
CCCCn1cnc2c(SCc3ccc(Cl)cc3)nc(N)nc21,"inconclusive: 29.1 µM [activator, single point]",
CCn1c2ccccc2c2cc(NC(=O)CSc3nnc(-c4ccc(OC)cc4)n3N)ccc21,"inconclusive: 23.1 µM [activator, single point]",
O=C(CN1CCN(CC(=O)Nc2ccccc2Cl)CC1)Nc1ccc(F)c(F)c1,"inconclusive: 2.91 µM [activator, partial curve, poor fit]",

# A few values from above.
# For re-replication activation, C=CCc1c(C)nc(-c2ccccc2)nc1N/N=C/c1ccccc1 has the entry inactive: -66.4%
# For Potency, O=C(CN1CCN(CC(=O)Nc2ccccc2Cl)CC1)Nc1ccc(F)c(F)c1 has the entry inconclusive: 2.91 µM [activator, partial curve, poor fit]
# For re-replication activation, O=c1ccc(-c2ccccc2)nn1Cc1ccccc1F has the entry inactive: 0.473%
# For Potency, CCn1c(/C=C/c2cc[n+](C)cc2)nc2ccccc21 has the entry inconclusive: 1.16 µM [activator, full curve, poor fit]

# The list goes on.

SMILES,Potency,re-replication activation
Cc1ccccc1S(=O)(=O)NC1OC(=O)C(Cl)=C1Cl (stereo not given),"inconclusive: 29.1 µM [activator, single point]",
C=CCn1c(N)c(C(=O)OC(C)(C)C)c2nc3ccccc3nc21,"inconclusive: 20.6 µM [activator, single point]",
Cc1cccc2cc(C#N)c(NCc3ccccc3)nc12,"inconclusive: 29.1 µM [activator, single point]",
CCCn1cc(CN2CCCC(CNC(=O)c3ccc(F)cc3)C2)c(C)n1 (stereo not given),"inconclusive: 5.17 µM [activator, partial curve, poor fit]",
COc1ccc(Br)c(C(=O)NC2CCCC2)c1,"inconclusive: 5.8 µM [activator, partial curve, poor fit]",
CSc1nnc(-c2ccc([N+](=O)[O-])cc2)o1,"inconclusive: 20.6 µM [activator, single point]",
Cc1ccc(C)c(OCC(=O)N/N=C/c2c(C)nn(-c3ccccc3)c2Cl)c1C,"inconclusive: 25.9 µM [activator, partial curve, poor fit]",
Cc1cccc(Cn2nc(-n3cccc3)c3c(C)cc(C)nc32)c1,,inactive: -11.2%
CCCCS(=O)(=O)/C=C\C=C/S(=O)(=O)CCCC,"inconclusive: 18.4 µM [activator, partial curve, poor fit]",
C=CCn1c(=O)[nH]c2nc3cc(N=CN(C)C)c(C)cc3nc2c1=O,"inconclusive: 29.1 µM [activator, single point]",
CC(=O)Nc1ccc(NC(=S)NC(=O)c2ccc(C(C)(C)C)cc2)cc1,,inactive: 16.7%
COc1ccc(-c2oc3ncn(CCN4CCOCC4)c(=N)c3c2-c2ccc(OC)cc2)cc1,"inconclusive: 18.4 µM [activator, single point]",
Cc1cc(C)cc(C(=O)Nc2cccnc2)c1,"inconclusive: 20.6 µM [activator, single point]",
CCCCNc1cc(=O)oc2ccccc12,,inactive: 2%
C/C(=N/NC(=O)C(O)(c1ccccc1)c1ccccc1)c1ccc([N+](=O)[O-])o1,,inactive: 12.2%
CCOc1[nH]n(-c2ccccc2)c(=O)c1C=Nc1ccccc1,"inconclusive: 29.1 µM [activator, single point]",
CC(=O)c1ccc(N2CCN(C(=O)CCC(=O)Nc3ccc4nc(N5CCN(C)CC5)cc(C)c4c3)CC2)cc1,"inconclusive: 20.6 µM [activator, single point]",
CCOC(=O)c1sc(NC(=O)c2cccc(S(=O)(=O)N3c4ccccc4CC3C)c2)cc1C (stereo not given),"inconclusive: 8.2 µM [activator, partial curve, poor fit]",
CCC(C(=O)NC1CCCC1)N(C(=O)c1snc(C(N)=O)c1N)c1ccc(OC)cc1 (stereo not given),"inconclusive: 29.1 µM [activator, single point]",
O=[N+]([O-])c1ccc(O)c(Nc2ncnc3ccc(Br)cc23)c1,"inconclusive: 20.6 µM [activator, single point]",
Cc1cc(N2CCN(C)CC2)nc2ccc(NC(=S)NCCCN3CCc4ccccc4C3)cc12,"inconclusive: 18.4 µM [activator, single point]",
O=C(NCc1ccccc1)[C@@H]1C[C@H]1[C@@H](NP(=O)(c1ccccc1)c1ccccc1)c1ccccc1,"inconclusive: 0.92 µM [activator, full curve, poor fit]",
